Measured values from publication PMC9653928.
No constants are given. Whether binding was seen depends on the method and setting. A result given as binding can be weak or reduced; the word gives no strength.

Legend:
Assay in all cases: two-hybrid; PprCIPKs in pGBKT7 as bait (strain Y2Hgold), PprCBLs in pGADT7 as prey (strain Y187), mated; diploids grown on DDO, QDO/A and QDO/A/X media at 30 °C for 3 d in the dark; empty vectors as controls
[1] = target: PprCIPK17 (peach (Prunus persica)) (UniProt M5W1Z0)
[2] = target: PprCIPK5 (peach (Prunus persica))
[3] = target: PprCIPK13 (peach (Prunus persica)) (UniProt M5W5N0)
[4] = target: PprCIPK14 (peach (Prunus persica)) (UniProt M5WPB6)
[5] = target: PprCIPK12 (peach (Prunus persica)) (UniProt M5WHU3)

Measured: binding

PprCBL1 (from UniProt A0A251RB23)
binds: [1] | [2]

PprCBL3 (from UniProt M5XDL0)
binds: all assays above
